Results reported in publication PMC7371429.
No constants are given. Whether binding was seen depends on the method and setting. Binding seen in cells or lysates may run through a third protein. Some results given as binding are weak or reduced against the parent protein; the word gives no strength.

Amino acid sequences for entries named in this document (tags omitted).
UniProt Q92826: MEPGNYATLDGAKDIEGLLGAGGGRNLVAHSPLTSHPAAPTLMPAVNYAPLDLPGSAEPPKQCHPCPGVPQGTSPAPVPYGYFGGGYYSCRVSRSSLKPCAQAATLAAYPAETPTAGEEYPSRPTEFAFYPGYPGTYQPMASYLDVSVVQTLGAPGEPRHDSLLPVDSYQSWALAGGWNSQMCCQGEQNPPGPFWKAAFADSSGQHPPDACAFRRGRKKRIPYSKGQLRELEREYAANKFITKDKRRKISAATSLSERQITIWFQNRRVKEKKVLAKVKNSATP

Legend:
[1] = target: HOXB13, endogenous (human (endogenous in PrECs, CWR22Rv1 and LAPC4)) (UniProt Q92826); experiment: co-IP; whole cell lysates (20 mM Tris pH 7.5, 150 mM NaCl, 1% Triton-X 100); 1000 ug lysate precipitated with anti-HOXB13 (EPR17371) overnight at 4°C, Protein A/G agarose; blot for MEIS1 and HOXB13
[2] = target: HOXB13, endogenous (human (endogenous in PrECs, CWR22Rv1 and LAPC4)) (UniProt Q92826); experiment: proximity ligation; in situ PLA (Duolink In Situ Red, Mouse/Rabbit) on fixed, permeabilised cells with anti-HOXB13(F-9) and anti-MEIS1 antibodies; nuclear foci counted per nucleus

Binder	binding [1]	binding [2]
MEIS1 (myeloid ecotropic viral integration site 1), endogenous (protein, UniProt O00470 1-390) MAQRYDDLPHYGGMDGVGIPSTMYGDPHAARSMQPVHHLNHGPPLHSHQYPHTAHTNAMAPSMGSSVNDALKRDKDAIYGHPLFPLLALIFEKCELATCTPREPGVAGGDVCSSESFNEDIAVFAKQIRAEKPLFSSNPELDNLMIQAIQVLRFHLLELEKVHELCDNFCHRYISCLKGKMPIDLVIDDREGGSKSDSEDITRSANLTDQPSWNRDHDDTASTRSGGTPGPSSGGHTSHSGDNSSEQGDGLDNSVASPSTGDDDDPDKDKKRHKKRGIFPKVATNIMRAWLFQHLTHPYPSEEQKKQLAQDTGLTILQVNNWFINARRRIVQPMIDQSNRAVSQGTPYNPDGQPMGGFVMDGQQHMGIRAPGPMSGMGMNMGMEGQWHYM	binds	binds
MEIS1, exogenous (lentiviral LV-MEIS1) (protein, UniProt O00470 1-390) MAQRYDDLPHYGGMDGVGIPSTMYGDPHAARSMQPVHHLNHGPPLHSHQYPHTAHTNAMAPSMGSSVNDALKRDKDAIYGHPLFPLLALIFEKCELATCTPREPGVAGGDVCSSESFNEDIAVFAKQIRAEKPLFSSNPELDNLMIQAIQVLRFHLLELEKVHELCDNFCHRYISCLKGKMPIDLVIDDREGGSKSDSEDITRSANLTDQPSWNRDHDDTASTRSGGTPGPSSGGHTSHSGDNSSEQGDGLDNSVASPSTGDDDDPDKDKKRHKKRGIFPKVATNIMRAWLFQHLTHPYPSEEQKKQLAQDTGLTILQVNNWFINARRRIVQPMIDQSNRAVSQGTPYNPDGQPMGGFVMDGQQHMGIRAPGPMSGMGMNMGMEGQWHYM	binds	binds
